The list shows a part of the results, in another mix than the full data.
Compound: COC(=O)C#Cc1ccccc1 [methyl 3-phenylpropiolate]
Test: log2 ratio of iodoacetamide-alkyne labeling of the cysteine site, DMSO over compound (competition); higher = stronger covalent engagement of the cysteine by the compound, active = 1 or more
Conditions: 500 µM; treatment time 1 h; system: HEK293T cell lysate
How it was run: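 Three replicates, each with duplicate channels, were prepared from HEK293T lysate (2 mg/mL) treated with vehicle or electrophile at 500 µM for 1 h at ambient temperature. Iodoacetamide alkyne was then applied for 1 h, and samples were clicked to sCIP-TMT reagents, pooled, trypsin-digested overnight at 37 °C, enriched on streptavidin, acid-eluted and analysed on Orbitrap Eclipse LC-MS/MS with FAIMS, with FragPipe quantification. The log2 competition ratio per cysteine is the mean control-channel divided by the mean compound-channel reporter intensity. Cysteines quantified in only one replicate were left out.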

The chains behind the UniProt entries cited, without tags or fusion partners. Where a name states a change or a piece, a line headed by the entry shows the natural chain unless it says otherwise.
UniProt Q99436: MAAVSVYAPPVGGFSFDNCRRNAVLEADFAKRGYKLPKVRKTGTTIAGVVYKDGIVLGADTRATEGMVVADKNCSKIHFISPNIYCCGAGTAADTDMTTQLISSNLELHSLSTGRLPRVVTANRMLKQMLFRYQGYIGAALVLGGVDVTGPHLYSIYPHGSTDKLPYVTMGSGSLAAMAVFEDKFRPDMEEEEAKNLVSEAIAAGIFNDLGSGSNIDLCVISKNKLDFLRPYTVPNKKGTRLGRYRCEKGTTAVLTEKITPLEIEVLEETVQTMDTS
UniProt Q96I24: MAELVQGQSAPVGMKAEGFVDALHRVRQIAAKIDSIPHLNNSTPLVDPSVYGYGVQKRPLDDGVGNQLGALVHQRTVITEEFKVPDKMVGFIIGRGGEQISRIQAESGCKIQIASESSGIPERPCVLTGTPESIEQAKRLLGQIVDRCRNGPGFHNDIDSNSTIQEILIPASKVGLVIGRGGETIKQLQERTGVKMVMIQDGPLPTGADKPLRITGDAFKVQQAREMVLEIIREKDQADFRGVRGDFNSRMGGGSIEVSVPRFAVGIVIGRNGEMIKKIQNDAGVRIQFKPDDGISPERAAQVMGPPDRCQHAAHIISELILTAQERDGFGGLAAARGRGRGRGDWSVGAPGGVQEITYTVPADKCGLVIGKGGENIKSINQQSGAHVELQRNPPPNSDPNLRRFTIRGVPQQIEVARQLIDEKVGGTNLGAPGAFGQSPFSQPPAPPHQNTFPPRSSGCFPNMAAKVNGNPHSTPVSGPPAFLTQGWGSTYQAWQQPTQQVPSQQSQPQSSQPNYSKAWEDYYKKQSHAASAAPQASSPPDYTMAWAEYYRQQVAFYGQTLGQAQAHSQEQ
UniProt Q96PZ0: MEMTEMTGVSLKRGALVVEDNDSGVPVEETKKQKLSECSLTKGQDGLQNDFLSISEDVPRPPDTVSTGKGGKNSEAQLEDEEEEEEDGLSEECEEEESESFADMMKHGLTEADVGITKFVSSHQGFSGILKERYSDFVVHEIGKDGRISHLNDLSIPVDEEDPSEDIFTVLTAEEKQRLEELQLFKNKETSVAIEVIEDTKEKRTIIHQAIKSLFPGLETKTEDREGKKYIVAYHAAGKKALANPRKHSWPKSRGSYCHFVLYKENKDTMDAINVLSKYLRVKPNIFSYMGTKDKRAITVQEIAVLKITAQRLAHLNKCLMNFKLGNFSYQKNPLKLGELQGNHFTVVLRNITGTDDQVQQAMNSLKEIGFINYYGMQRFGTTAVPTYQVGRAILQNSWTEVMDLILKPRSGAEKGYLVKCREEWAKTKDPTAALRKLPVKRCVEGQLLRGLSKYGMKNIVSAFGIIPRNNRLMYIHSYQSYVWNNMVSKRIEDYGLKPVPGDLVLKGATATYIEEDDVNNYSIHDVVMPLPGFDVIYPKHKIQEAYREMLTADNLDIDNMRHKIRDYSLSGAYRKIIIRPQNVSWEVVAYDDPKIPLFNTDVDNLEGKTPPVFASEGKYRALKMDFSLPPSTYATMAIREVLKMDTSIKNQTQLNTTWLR
UniProt Q9BQ89: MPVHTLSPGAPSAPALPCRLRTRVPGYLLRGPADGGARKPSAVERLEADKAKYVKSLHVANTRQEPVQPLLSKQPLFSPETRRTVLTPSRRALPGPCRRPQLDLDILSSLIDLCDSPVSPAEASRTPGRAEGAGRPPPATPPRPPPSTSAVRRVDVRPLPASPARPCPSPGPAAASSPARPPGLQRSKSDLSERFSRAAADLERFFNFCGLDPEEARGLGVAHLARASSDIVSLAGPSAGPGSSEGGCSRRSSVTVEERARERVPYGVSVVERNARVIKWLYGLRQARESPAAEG
UniProt Q99829: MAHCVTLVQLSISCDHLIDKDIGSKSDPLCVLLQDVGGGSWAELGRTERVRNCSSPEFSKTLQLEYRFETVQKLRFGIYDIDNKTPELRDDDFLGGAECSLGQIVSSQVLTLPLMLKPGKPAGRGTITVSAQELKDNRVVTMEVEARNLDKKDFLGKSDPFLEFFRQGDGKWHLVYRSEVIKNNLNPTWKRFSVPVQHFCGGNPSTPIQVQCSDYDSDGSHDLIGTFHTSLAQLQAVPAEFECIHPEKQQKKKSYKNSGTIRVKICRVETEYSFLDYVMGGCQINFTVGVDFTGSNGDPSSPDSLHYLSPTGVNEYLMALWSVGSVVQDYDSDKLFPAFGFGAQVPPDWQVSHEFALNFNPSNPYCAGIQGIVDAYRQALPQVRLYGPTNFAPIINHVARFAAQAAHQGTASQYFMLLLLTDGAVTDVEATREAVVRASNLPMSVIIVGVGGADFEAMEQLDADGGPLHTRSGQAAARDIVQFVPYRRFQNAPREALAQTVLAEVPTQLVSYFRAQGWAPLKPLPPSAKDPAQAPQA
UniProt Q96KG9: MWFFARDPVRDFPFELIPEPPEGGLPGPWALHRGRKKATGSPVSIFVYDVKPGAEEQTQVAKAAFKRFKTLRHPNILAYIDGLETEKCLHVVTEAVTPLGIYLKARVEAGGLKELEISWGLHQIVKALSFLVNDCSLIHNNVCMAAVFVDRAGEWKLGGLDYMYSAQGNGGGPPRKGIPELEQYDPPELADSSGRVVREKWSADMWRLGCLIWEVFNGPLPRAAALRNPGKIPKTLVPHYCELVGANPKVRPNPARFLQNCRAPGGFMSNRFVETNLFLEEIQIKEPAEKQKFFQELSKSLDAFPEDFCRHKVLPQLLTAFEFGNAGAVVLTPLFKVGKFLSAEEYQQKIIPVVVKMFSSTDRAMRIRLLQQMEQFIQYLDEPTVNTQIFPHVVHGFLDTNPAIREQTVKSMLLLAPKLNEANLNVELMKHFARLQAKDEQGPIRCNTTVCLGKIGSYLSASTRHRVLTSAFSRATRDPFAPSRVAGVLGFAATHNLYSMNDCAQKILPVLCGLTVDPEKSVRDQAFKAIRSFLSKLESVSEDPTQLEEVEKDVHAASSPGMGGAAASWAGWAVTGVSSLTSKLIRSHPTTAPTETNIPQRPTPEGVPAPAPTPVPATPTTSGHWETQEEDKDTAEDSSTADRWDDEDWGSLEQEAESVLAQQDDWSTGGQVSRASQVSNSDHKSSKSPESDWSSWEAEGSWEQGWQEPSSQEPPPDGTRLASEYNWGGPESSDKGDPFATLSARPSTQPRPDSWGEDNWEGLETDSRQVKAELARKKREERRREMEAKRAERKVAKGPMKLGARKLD
UniProt Q96I25: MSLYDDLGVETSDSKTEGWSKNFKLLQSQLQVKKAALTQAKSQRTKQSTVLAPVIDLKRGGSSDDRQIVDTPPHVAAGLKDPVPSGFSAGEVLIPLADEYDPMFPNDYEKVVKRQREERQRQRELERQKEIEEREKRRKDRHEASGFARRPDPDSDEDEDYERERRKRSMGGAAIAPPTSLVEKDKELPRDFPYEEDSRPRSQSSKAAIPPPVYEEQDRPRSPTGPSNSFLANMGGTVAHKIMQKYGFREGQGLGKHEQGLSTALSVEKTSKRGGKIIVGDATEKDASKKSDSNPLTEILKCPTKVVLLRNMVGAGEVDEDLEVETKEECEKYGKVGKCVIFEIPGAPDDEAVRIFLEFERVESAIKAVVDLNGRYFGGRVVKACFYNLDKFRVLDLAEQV
UniProt Q96T51: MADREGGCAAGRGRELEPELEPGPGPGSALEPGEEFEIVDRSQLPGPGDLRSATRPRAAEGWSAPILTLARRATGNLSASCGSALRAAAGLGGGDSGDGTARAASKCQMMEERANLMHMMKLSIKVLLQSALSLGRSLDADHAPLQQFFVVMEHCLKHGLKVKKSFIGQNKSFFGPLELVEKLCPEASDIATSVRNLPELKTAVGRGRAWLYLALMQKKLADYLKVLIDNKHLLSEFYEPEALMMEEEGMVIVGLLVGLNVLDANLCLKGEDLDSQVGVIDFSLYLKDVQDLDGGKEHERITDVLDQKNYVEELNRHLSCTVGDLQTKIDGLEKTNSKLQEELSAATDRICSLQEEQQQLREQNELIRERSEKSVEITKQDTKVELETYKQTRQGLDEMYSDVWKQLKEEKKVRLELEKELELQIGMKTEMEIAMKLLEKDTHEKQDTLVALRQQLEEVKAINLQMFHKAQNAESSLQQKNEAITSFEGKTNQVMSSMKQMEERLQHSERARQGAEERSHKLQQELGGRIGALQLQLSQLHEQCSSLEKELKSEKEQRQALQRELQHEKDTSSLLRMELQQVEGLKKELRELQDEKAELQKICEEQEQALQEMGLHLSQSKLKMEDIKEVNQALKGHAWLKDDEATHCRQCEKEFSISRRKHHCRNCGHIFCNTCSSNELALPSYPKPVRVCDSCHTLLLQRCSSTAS
UniProt Q96JM7: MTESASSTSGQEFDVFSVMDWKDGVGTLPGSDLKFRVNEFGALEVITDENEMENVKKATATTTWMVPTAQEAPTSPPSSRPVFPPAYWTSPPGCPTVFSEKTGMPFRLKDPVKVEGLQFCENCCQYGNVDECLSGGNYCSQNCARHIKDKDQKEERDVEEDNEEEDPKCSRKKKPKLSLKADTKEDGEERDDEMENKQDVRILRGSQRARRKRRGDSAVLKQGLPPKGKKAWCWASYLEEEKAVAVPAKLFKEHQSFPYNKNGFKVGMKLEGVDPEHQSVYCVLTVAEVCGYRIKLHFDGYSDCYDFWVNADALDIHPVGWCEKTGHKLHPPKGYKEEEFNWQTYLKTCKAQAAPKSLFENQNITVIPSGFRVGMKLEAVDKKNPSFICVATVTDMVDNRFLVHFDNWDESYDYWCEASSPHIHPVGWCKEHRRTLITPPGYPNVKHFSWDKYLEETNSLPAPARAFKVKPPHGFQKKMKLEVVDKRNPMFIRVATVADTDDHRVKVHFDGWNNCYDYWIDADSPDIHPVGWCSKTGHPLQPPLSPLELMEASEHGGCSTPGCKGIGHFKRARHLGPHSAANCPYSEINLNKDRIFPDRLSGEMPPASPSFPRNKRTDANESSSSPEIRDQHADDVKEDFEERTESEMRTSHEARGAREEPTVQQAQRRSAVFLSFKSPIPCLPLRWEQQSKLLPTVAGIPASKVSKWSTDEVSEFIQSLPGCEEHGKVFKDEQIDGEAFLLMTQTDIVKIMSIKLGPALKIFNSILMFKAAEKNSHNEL
UniProt Q96S55: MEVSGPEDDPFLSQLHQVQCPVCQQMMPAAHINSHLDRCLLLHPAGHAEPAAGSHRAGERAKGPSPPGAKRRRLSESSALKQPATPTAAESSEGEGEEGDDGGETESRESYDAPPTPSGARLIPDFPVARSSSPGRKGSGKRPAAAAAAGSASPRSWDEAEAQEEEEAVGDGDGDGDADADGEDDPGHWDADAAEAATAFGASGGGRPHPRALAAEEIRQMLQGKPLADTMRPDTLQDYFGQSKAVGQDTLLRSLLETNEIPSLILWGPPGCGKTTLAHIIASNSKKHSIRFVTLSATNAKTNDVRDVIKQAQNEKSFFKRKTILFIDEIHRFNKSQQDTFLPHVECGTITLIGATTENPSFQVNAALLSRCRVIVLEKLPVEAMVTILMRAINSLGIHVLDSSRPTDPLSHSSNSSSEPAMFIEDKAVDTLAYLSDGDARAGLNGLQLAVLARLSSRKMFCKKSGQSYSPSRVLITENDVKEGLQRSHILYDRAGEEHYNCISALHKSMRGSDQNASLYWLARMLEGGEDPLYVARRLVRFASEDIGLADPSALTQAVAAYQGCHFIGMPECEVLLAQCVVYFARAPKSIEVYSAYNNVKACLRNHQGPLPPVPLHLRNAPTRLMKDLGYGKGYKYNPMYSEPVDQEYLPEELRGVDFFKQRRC
UniProt Q99986: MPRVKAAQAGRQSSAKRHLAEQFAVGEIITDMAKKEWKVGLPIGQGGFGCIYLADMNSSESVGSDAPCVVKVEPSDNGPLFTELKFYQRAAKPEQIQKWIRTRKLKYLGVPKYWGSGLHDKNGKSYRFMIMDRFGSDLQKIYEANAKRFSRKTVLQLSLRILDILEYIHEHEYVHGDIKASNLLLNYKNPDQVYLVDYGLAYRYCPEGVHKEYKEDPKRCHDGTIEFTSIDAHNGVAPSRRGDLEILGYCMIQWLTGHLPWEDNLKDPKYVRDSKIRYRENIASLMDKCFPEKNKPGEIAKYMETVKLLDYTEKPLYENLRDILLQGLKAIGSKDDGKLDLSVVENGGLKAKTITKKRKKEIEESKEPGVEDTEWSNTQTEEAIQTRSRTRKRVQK
UniProt Q99714: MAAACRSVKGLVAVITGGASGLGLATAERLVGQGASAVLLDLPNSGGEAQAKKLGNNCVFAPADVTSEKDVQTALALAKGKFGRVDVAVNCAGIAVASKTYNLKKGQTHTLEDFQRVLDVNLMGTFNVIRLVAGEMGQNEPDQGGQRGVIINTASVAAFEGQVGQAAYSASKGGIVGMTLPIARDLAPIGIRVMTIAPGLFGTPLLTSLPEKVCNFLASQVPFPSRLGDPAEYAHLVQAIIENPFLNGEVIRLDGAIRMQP

Row | Target | log2 ratio of iodoacetamide-alkyne labeling
1 | POP1 C705 (UniProt Q99575) | inactive: 0.307
2 | PSMB7 C87 (UniProt Q99436) | inactive: 0.421
3 | FUBP3 C125 (UniProt Q96I24) | inactive: 0.341
4 | PSMD1 C806 (UniProt Q99460) | inactive: 0.413
5 | UniProt Q96JG6_C136 | inactive: 0.554
6 | PUS7 C38 (UniProt Q96PZ0) | inactive: 0.599
7 | FAM110A C114 (UniProt Q9BQ89) | inactive: 0.175
8 | CPNE1 C30 (UniProt Q99829) | inactive: -0.402
9 | ZNF830 C314 (UniProt Q96NB3) | inactive: 0.699
10 | SCYL1 C309 (UniProt Q96KG9) | inactive: 0.548
11 | EP400 C694 (UniProt Q96L91) | inactive: 0.26
12 | ZFR C922 (UniProt Q96KR1) | inactive: 0.289
13 | VAT1 C50 (UniProt Q99536) | inactive: 0.122
14 | RBM17 C302 (UniProt Q96I25) | inactive: 0.102
15 | AKAP9 C2571 (UniProt Q99996) | inactive: 0.309
16 | RUFY1 C351 (UniProt Q96T51) | inactive: 0.308
17 | SCYL1 C512 (UniProt Q96KG9) | inactive: 0.205
18 | L3MBTL3 C515 (UniProt Q96JM7) | inactive: 0.108
19 | WRNIP1 C272 (UniProt Q96S55) | inactive: 0.116
20 | POP1 C777 (UniProt Q99575) | inactive: 0.339
21 | VRK1 C250 (UniProt Q99986) | inactive: -0.179
22 | HSD17B10 C58 (UniProt Q99714) | inactive: 0.349

An excerpt of these results, as tab-separated lines.
Row	Target	log2 ratio of iodoacetamide-alkyne labeling
9	ZNF830 C314 (UniProt Q96NB3)	inactive: 0.699
11	EP400 C694 (UniProt Q96L91)	inactive: 0.26

Source: the supplement of paper PMC11006884
